Record: PubChem BioAssay AID504791 (Drosophila RNAi Screening Center, 2011)
Test: 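Genes whose knock-down strengthens or weakens small-RNA reporter silencing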 (primary screen). System: Drosophila S2-derived reporter cells. Reagents: long dsRNA against Drosophila genes, about 150-250 ng dsRNA per well (siRNA assay); about 80-120 ng (miRNA assay). Timing: about 5 days (siRNA assay); about 4 days (miRNA assay). Conditions: copper sulfate induction of reporters: 25 µM (siRNA assay); 200 mM stated (miRNA assay), 1-2 days before reading. Measurement: 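Dual luciferase assay: Renilla to firefly signal ratio in each well, scaled to the mean ratio of its plate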. Rule for the call: 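a well was a first-pass pick when its plate-scaled ratio rose above 1.5 (siRNA assay) or 1.6 (miRNA assay), or dropped below 0.6; a gene counted only if two separate dsRNAs agreed on retest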.
In all, the deposit lists about 23,000 reagents; this is a random part of those with a known target gene and a result. Over the whole deposit, 199 (0.86%) were called active. 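Plate-scaled ratios behind the calls are not deposited; printed light signals are raw; many rows marked increased or decreased are still called inactive.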 A plus sign joins genes that one reagent is predicted to hit. No sequences are given here. Not stated in the record: the direction of the score.

Gene | amplicon | miRNA reporter change | stable assay Renilla, run 1 (luminescence) | stable assay firefly, run 1 (luminescence) | activity call
CG9616 | DRSC16518 | – | 7103 | 6.14e5 | inactive
kkv | DRSC12315 | – | 8115 | 5.47e5 | inactive
caup | DRSC11334 | – | 5648 | 2.81e5 | inactive
caup | DRSC23050 | – | 4891 | 3.50e5 | inactive
Cyp316a1 | DRSC11130 | – | 6499 | 3.75e5 | inactive
CG15375 | DRSC18045 | – | 5786 | 4.04e5 | inactive
CR18275 + CR18166 + CG32817 | DRSC17249 | – | 6835 | 3.70e5 | inactive
CG13131 | DRSC02227 | – | 7444 | 4.17e5 | inactive
CG13131 | DRSC23253 | – | 4455 | 3.75e5 | inactive
mv | DRSC08208 | – | 5519 | 4.12e5 | inactive
mv | DRSC08570 | – | 5204 | 3.93e5 | inactive
Cp38 | DRSC18453 | – | 5414 | 3.37e5 | inactive
CG3505 | DRSC15489 | – | 8914 | 4.80e5 | inactive
Golgin84 | DRSC15269 | – | 7615 | 3.65e5 | inactive
Smn | DRSC10223 | – | 12087 | 4.77e5 | inactive
CG32452 | DRSC11581 | – | 6123 | 4.25e5 | inactive
CG32452 | DRSC22250 | – | 8780 | 5.51e5 | inactive
CG7069 | DRSC16188 | – | 8086 | 3.52e5 | inactive
Grl43a | DRSC06383 | – | 6822 | 3.34e5 | inactive
CG2875 | DRSC18231 | – | 7537 | 4.51e5 | inactive
noc | DRSC03580 | – | 22321 | 1.57e6 | inactive
Tgi | DRSC09793 | – | 5460 | 3.21e5 | inactive
Tgi | DRSC09794 | – | 5955 | 3.36e5 | inactive
Pli | DRSC16792 | – | 9321 | 3.98e5 | inactive
Osi8 | DRSC12277 | – | 7284 | 4.88e5 | inactive
CG8654 | DRSC07231 | – | 8167 | 2.81e5 | inactive
Gnpat | DRSC16960 | – | 5859 | 3.15e5 | inactive

Part of the list above, set out differently.
{"Gene": "CG7069", "amplicon": "DRSC16188", "stable assay Renilla, run 1 (luminescence)": 8086, "stable assay firefly, run 1 (luminescence)": 3.52e5, "activity call": "inactive"}
{"Gene": "Grl43a", "amplicon": "DRSC06383", "stable assay Renilla, run 1 (luminescence)": 6822, "stable assay firefly, run 1 (luminescence)": 3.34e5, "activity call": "inactive"}
{"Gene": "CG2875", "amplicon": "DRSC18231", "stable assay Renilla, run 1 (luminescence)": 7537, "stable assay firefly, run 1 (luminescence)": 4.51e5, "activity call": "inactive"}
{"Gene": "noc", "amplicon": "DRSC03580", "stable assay Renilla, run 1 (luminescence)": 22321, "stable assay firefly, run 1 (luminescence)": 1.57e6, "activity call": "inactive"}
{"Gene": "Tgi", "amplicon": "DRSC09793", "stable assay Renilla, run 1 (luminescence)": 5460, "stable assay firefly, run 1 (luminescence)": 3.21e5, "activity call": "inactive"}
{"Gene": "Tgi", "amplicon": "DRSC09794", "stable assay Renilla, run 1 (luminescence)": 5955, "stable assay firefly, run 1 (luminescence)": 3.36e5, "activity call": "inactive"}
{"Gene": "Pli", "amplicon": "DRSC16792", "stable assay Renilla, run 1 (luminescence)": 9321, "stable assay firefly, run 1 (luminescence)": 3.98e5, "activity call": "inactive"}

Continued:
Gene | amplicon | miRNA reporter change | stable assay Renilla, run 1 (luminescence) | stable assay firefly, run 1 (luminescence) | activity call
l(2)k05819 | DRSC00826 | – | 18911 | 1.03e6 | inactive
GramD1B | DRSC00426 | – | 7174 | 3.68e5 | inactive
GramD1B | DRSC00591 | – | 1.89e5 | 1.07e5 | inactive
GramD1B | DRSC28705 | reporter ratio raised past the hit cutoff | – | – | inactive
CG31808 | DRSC22962 | – | 4794 | 4.91e5 | inactive
Arms | DRSC03856 | – | 5370 | 5.12e5 | inactive
Arms | DRSC03857 | – | 4886 | 2.37e5 | inactive
Arms | DRSC04052 | – | 93110 | 1.46e6 | inactive
Arms | DRSC04256 | – | 5175 | 2.40e5 | inactive
CG45105 | DRSC15002 | – | 5978 | 2.51e5 | inactive
CG45105 | DRSC15833 | – | 7634 | 4.69e5 | inactive
MED19 | DRSC10516 | – | 5618 | 1.84e5 | inactive
CG14182 | DRSC10181 | – | 7648 | 3.31e5 | inactive
TM4SF | DRSC04661 | – | 16048 | 1.07e6 | inactive
CG13857 | DRSC14707 | – | 7338 | 3.83e5 | inactive
Polr2L | DRSC14630 | – | 4638 | 2.17e5 | inactive
CG10317 | DRSC14229 | – | 7508 | 3.34e5 | inactive
CG31681 | DRSC00107 | – | 6179 | 3.72e5 | inactive
CG13614 | DRSC14617 | – | 6963 | 2.92e5 | inactive
CG6409 | DRSC10630 | – | 5130 | 3.93e5 | inactive
CG6409 | DRSC22330 | – | 10794 | 6.98e5 | inactive
CG33463 | DRSC22915 | – | 2160 | 2.72e5 | inactive
Dlc90F | DRSC16649 | – | 9578 | 3.45e5 | inactive
GstD5 | DRSC16686 | – | 6440 | 3.79e5 | inactive
stv | DRSC09796 | – | 9746 | 4.20e5 | inactive
stv | DRSC10111 | – | 5788 | 3.83e5 | inactive
CG14383 | DRSC14841 | – | 7422 | 5.61e5 | inactive
vnc + CG42455 | DRSC09867 | – | 6696 | 3.28e5 | inactive
nau | DRSC17011 | – | 7031 | 2.74e5 | inactive
ProtA | DRSC03372 | – | 7674 | 5.76e5 | inactive
